# The supplement of paper PMC11006884
# Sequences of proteins named here, by UniProt entry; tags and fusion partners are left off. A change or cut given only in a name is not applied to a line headed by its entry.
# UniProt Q9NZB2: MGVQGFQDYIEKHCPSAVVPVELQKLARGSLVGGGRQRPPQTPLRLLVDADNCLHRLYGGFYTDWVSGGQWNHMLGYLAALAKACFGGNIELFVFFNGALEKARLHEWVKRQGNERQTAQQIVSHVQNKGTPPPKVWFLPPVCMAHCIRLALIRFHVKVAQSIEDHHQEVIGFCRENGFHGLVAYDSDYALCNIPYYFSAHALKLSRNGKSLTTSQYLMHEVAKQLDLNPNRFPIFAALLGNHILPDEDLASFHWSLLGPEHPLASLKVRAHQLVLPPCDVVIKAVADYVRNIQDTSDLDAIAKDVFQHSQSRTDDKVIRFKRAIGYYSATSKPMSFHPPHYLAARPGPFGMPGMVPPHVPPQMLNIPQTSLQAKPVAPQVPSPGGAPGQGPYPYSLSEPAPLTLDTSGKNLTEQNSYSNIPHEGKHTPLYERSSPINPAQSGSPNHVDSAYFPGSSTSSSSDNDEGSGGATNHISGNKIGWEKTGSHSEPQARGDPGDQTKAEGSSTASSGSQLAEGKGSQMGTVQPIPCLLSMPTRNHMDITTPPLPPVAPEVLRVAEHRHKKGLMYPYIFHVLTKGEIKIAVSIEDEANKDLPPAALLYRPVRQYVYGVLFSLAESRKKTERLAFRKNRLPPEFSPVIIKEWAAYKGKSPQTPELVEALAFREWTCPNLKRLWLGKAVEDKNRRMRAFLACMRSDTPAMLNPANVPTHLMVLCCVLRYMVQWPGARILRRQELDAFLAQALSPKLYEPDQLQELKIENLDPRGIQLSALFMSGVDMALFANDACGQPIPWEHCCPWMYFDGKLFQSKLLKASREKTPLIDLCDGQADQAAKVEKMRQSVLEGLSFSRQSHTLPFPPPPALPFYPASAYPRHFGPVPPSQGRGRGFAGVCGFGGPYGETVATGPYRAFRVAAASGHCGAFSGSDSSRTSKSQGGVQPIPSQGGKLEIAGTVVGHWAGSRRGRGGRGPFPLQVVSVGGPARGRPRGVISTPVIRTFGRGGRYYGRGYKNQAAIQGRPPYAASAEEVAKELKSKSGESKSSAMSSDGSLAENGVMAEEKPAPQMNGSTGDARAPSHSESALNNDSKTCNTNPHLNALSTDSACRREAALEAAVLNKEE
# UniProt Q9NZL9, whole entry, looked up: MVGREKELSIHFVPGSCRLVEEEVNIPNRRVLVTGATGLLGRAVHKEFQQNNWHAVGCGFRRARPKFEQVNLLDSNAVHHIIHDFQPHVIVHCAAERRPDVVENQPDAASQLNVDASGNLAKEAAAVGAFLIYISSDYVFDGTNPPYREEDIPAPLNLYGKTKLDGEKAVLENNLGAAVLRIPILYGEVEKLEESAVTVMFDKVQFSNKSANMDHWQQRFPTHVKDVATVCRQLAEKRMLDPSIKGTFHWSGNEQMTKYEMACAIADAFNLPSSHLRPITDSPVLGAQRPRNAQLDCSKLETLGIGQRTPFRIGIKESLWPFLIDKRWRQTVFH
# UniProt Q9NVS9: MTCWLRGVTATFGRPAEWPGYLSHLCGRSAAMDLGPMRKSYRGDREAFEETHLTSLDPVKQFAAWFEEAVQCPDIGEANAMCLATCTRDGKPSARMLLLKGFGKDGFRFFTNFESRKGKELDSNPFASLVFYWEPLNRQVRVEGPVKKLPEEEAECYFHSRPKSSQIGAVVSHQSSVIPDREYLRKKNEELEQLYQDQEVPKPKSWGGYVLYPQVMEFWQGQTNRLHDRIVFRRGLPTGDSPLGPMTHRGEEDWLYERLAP
# UniProt Q9P287, whole entry: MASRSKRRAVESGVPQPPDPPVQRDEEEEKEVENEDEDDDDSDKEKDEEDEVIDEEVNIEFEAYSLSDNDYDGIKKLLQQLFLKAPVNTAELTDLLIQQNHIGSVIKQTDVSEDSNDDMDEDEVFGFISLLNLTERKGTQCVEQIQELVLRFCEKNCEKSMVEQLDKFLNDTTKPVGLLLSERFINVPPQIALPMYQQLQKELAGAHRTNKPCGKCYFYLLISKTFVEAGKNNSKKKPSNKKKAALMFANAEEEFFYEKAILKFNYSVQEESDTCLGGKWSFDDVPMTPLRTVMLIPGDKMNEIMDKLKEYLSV
# UniProt Q9NY93: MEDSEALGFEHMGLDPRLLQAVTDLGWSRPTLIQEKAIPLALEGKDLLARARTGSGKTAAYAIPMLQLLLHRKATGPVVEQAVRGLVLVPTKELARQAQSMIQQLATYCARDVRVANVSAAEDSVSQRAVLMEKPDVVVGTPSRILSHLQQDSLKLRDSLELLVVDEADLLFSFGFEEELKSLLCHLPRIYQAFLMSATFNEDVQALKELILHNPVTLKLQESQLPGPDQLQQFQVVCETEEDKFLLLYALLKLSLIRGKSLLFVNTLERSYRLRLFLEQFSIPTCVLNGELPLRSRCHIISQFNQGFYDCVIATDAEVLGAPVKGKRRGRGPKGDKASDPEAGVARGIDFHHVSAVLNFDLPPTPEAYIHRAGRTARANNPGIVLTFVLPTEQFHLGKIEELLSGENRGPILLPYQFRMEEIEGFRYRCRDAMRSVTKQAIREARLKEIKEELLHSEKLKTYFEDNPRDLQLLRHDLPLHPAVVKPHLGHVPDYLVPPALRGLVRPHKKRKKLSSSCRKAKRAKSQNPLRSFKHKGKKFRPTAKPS
# UniProt Q9UHB9: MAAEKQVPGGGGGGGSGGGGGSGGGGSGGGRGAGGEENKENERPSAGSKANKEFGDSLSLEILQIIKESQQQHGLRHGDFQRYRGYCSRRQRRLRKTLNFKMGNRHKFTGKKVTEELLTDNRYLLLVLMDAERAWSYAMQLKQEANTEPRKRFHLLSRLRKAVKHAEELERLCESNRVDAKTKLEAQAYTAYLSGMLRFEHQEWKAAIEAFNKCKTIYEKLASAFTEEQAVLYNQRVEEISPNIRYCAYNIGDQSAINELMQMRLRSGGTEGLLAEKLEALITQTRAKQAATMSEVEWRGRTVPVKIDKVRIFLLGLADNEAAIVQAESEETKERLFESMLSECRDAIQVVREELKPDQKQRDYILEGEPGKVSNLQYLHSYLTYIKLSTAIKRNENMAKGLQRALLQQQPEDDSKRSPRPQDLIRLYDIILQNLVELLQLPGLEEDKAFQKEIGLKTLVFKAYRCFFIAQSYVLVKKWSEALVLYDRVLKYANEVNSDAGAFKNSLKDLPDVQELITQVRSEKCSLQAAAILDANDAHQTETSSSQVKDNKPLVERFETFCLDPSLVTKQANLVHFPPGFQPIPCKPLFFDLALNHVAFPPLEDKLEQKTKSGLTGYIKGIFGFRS
# UniProt Q9UET6: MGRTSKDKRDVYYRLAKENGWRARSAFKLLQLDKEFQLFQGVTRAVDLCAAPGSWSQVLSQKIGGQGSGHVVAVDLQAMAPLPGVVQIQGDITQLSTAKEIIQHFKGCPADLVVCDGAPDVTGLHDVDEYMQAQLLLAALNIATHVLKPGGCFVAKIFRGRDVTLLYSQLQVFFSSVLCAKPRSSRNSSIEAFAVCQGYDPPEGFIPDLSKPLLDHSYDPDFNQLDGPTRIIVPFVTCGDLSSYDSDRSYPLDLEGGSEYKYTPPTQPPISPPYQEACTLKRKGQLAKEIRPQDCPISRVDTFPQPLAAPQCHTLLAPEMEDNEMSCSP
# UniProt Q9NZJ9: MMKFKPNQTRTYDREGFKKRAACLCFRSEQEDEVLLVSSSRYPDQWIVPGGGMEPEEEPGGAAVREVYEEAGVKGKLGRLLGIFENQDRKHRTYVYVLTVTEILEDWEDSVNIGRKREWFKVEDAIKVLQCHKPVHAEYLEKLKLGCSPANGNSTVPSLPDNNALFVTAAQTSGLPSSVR
# UniProt Q9UBT2: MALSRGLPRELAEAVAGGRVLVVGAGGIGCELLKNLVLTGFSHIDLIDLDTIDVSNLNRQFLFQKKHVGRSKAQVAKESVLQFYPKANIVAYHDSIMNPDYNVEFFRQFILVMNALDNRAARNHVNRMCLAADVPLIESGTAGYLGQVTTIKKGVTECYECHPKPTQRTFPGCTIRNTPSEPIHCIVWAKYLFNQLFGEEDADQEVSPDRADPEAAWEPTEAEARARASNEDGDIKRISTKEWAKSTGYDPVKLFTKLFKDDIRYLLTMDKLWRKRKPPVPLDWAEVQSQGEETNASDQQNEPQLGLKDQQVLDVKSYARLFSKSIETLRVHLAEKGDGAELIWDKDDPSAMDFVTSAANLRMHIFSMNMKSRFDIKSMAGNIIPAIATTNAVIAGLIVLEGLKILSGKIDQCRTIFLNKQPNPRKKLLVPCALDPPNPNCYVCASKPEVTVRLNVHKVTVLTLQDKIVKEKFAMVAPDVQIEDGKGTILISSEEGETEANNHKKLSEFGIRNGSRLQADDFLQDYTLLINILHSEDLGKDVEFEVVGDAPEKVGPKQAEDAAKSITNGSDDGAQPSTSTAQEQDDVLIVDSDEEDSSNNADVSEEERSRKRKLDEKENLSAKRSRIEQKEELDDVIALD
# UniProt Q9NWS0, whole entry: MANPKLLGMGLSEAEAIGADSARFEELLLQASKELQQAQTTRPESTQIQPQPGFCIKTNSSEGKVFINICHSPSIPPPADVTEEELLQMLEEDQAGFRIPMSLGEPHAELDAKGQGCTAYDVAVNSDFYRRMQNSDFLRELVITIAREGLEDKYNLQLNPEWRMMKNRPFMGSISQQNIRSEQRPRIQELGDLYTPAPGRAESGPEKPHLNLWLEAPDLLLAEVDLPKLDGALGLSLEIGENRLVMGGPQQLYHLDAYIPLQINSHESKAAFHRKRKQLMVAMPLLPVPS
# UniProt Q9P2E9: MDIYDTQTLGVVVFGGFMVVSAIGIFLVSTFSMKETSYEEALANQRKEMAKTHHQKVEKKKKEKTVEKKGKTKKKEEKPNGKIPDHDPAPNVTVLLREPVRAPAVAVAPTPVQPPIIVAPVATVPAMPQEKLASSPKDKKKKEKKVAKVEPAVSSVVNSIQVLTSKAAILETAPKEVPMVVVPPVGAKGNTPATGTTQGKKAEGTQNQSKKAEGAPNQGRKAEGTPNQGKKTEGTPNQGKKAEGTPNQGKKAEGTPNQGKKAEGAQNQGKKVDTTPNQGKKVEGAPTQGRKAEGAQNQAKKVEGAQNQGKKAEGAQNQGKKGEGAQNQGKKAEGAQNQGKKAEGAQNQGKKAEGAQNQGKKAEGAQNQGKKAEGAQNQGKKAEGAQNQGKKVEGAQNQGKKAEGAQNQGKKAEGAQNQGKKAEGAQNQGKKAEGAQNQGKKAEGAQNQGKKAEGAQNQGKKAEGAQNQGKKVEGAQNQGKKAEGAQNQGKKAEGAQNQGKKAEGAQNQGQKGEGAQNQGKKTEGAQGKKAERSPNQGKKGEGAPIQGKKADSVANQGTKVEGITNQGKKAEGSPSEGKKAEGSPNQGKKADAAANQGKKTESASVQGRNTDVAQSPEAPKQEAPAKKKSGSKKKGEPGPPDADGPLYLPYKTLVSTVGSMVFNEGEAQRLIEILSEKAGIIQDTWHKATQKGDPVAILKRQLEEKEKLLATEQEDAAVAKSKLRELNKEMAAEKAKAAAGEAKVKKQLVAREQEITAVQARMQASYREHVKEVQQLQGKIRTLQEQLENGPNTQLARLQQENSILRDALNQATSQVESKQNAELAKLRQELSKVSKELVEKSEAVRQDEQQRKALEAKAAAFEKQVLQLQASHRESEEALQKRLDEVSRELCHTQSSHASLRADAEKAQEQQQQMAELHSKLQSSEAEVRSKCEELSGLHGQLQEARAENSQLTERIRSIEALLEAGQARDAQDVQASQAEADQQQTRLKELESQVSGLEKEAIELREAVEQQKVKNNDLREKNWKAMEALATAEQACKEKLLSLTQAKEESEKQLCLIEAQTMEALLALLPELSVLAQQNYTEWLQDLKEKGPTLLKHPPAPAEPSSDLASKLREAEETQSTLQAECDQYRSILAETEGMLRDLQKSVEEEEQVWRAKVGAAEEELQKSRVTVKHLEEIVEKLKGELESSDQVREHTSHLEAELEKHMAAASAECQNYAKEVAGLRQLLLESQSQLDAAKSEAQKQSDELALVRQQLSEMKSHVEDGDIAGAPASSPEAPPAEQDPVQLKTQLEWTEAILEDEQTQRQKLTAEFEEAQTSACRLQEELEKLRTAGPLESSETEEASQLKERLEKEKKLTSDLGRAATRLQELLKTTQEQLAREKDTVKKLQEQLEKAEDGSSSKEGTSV
# The entries are a selection whose mix differs from that of the whole data set.
# Compound: COC(=O)C#Cc1ccccc1 [methyl 3-phenylpropiolate]
# Assay: log2 ratio of iodoacetamide-alkyne labeling of the cysteine site, DMSO over compound (competition); higher = stronger covalent engagement of the cysteine by the compound, active = 1 or more
# Conditions: 500 µM; treatment time 1 h; system: HEK293T cell lysate
# Method in brief: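 Reporter intensities give each cysteine's log2 competition ratio as the mean of control channels over the mean of compound channels. The samples were HEK293T lysate (2 mg/mL) given vehicle or electrophile (500 µM, 1 h, ambient temperature), then iodoacetamide alkyne (1 h), followed by click coupling to sCIP-TMT reagents, pooling, trypsin digestion overnight at 37 °C, streptavidin enrichment, acid elution, Orbitrap Eclipse LC-MS/MS with FAIMS and FragPipe quantification. Duplicate channels and three replicates were run, and cysteines quantified in only one replicate were discarded.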
row,Target,log2 ratio of iodoacetamide-alkyne labeling
1,FAM120A C669 (UniProt Q9NZB2),inactive: 0.253
2,NCDN C415 (UniProt Q9UBB6),inactive: 0.318
3,MAT2B C17 (UniProt Q9NZL9),inactive: 0.566
4,PNPO C156 (UniProt Q9NVS9),inactive: 0.121
5,UniProt Q9UBD5_C158,active: 1.13
6,LYAR C51 (UniProt Q9NX58),inactive: 0.0295
7,BCCIP C141 (UniProt Q9P287),inactive: -0.0782
8,DDX56 C298 (UniProt Q9NY93),inactive: 0.522
9,MRPS18A C73 (UniProt Q9NVS2),inactive: 0.11
10,SRP68 C247 (UniProt Q9UHB9),inactive: 0.197
11,FTSJ1 C49 (UniProt Q9UET6),inactive: 0.248
12,UniProt Q9NVH0_C284,inactive: 0.123
13,NUDT4 C131 (UniProt Q9NZJ9),inactive: 0.306
14,UBA2 C413 (UniProt Q9UBT2),inactive: -0.162
15,RCC2 C42 (UniProt Q9P258),inactive: 0.344
16,PNPO C72 (UniProt Q9NVS9),inactive: -0.0958
17,PIH1D1 C117 (UniProt Q9NWS0),inactive: -0.0018
18,TRMT1 C621 (UniProt Q9NXH9),inactive: -0.0886
19,RRBP1 C1128 (UniProt Q9P2E9),inactive: 0.167
20,UniProt Q9NYV4_C1009,inactive: 0.768
21,MRPL22 C70 (UniProt Q9NWU5),inactive: -0.289
22,AASS C87 (UniProt Q9UDR5),inactive: 0.102

# From entry 14 to 15, copied from above:
row,Target,log2 ratio of iodoacetamide-alkyne labeling
14,UBA2 C413 (UniProt Q9UBT2),inactive: -0.162
15,RCC2 C42 (UniProt Q9P258),inactive: 0.344
